Data: patent publication US9394253B2, “Kinase protein binding inhibitors” (Roswell Park Cancer Institute, priority 2011, dated 2016)
Where two headings read alike, the source gives them in different places. At least one structure is not confirmed: it was looked up by name or label, or the drawing left a doubt.

Key:
[1] = system: pancreatic cancer cell line; conditions: cited from earlier work
MiaPaCa-2-luc cells = assay: Tumor growth in xenograft nude mice; assay type: in vivo; conditions: IP 50 mg/kg daily; P<0.05
Protocol: Female nude or SCID mice were purchased six weeks old and were maintained in the animal facility, and all experiments were performed in compliance with NIH animal use guidelines using IACUC protocol approved by the Roswell Park Animal Care Committee. The 1×10^6 MiaPaCa2 cells were injected into mice subcutaneously. Next day after cell injection or week later, when tumor size reached 100 mm^3, drug was introduced by IP or gavage orally daily, 5 days per week for several weeks. Tumor diameters were measured with calipers and tumor volume in mm^3 was calculated using this formula: tumor volume=(width)^2×Length/2. At the end of the experiment, tumor weight and volume were determined. Tumor samples were collected for Western blotting and for immunohistochemical analysis.
Mice received a daily dose of the indicated amount of compounds 9A, 9B or C10 either by intraperitoneal injection (IP) or by oral gavage (PO). Treatment was initiated after tumors reached a volume of approximately 100 mm^3. […] The percent reduction in tumor volume compared to the control group (“PBS-IP”) is indicated in FIG. 6B for each treatment group.

## CN(C)CCN(Cc1ccc(Cl)cc1)c1ccccn1 [chloropyramine, reference compound]
[1]
  activity against pancreatic cancer cell line (previously shown): active
[1]; listed as Chloropyramine
  activity against pancreatic cancer cell line (previously shown): some activity
MiaPaCa-2-luc cells
  tumor volume compared to vehicle (PBS)-treated tumors: Statistically significant differences
